Test results from patent publication US20240287169A1 (AULOS BIOSCIENCE, published 2024).
Numbering of substitutions follows the chain as printed. These are yes or no findings as the source states them, for the method shown. Each block holds one binder with its values, some of them ahead of it.

Tests used:
soluble TNFR2 [1] = test: yeast surface display flow cytometry, labeled with the 500 nM OX40/PD-1/TNFR2 mixture
OX40 [2] = test: as above
PD1 [3] = test: as above
soluble TNFR2 [4] = test: yeast surface display, labeling with a mixture of TNFR2, OX40 and PD1, flow cytometry
OX40 [5] = test: as above
PD1 [6] = test: as above

B1: clone 2 (17.022), yeast-displayed scFv (scFv, V domains shown)
VH: EIQLQQSGPELRRPGSSVKLSCKASGYNITDYLIHWVRHRPEHGLEWIGWIDPEDGETRYAQKFQSKATLTADTSSNAAYMQLSSLTPEDTATYFCARSLDSTWIYPFAYWGQGTLVTVSS
VL: DIVMTQSPFSLAVSEGEMVTINCKSSQSLLRSGNQKNYLAWYQQKPGQSPKLLIYYASTGQSGVPDRFIGSGSGTDFTLTISDVQAEDLADYYCLQHYITPPTFGAGTKLELK
binding (soluble TNFR2 [1]): no binding (tested: 500 nM)
binding (OX40 [2]): no binding (tested: 500 nM)
binding (PD1 [3]): no binding (tested: 500 nM)
binding (soluble TNFR2 [4]): no binding (tested: 500 nM)
binding (OX40 [5]): no binding (tested: 500 nM)
binding (PD1 [6]): no binding (tested: 500 nM)

B2: clone 5 (17.030), yeast-displayed scFv (scFv, V domains shown)
VH: B1 VH with W104Y, I105D
VL: B1 VL with T100S
binding (soluble TNFR2 [1]): no binding (tested: 500 nM)
binding (OX40 [2]): no binding (tested: 500 nM)
binding (PD1 [3]): no binding (tested: 500 nM)
binding (soluble TNFR2 [4]): no binding (tested: 500 nM)
binding (OX40 [5]): no binding (tested: 500 nM)
binding (PD1 [6]): no binding (tested: 500 nM)

B5: clone 1 (17.021), yeast-displayed scFv (scFv, V domains shown)
VH: B1 VH with Y32N, W104Y
VL: B1 VL with I99Q, T100S
binding (soluble TNFR2 [1]): no binding (tested: 500 nM)
binding (OX40 [2]): no binding (tested: 500 nM)
binding (PD1 [3]): no binding (tested: 500 nM)
binding (soluble TNFR2 [4]): no binding (tested: 500 nM)
binding (OX40 [5]): no binding (tested: 500 nM)
binding (PD1 [6]): no binding (tested: 500 nM)

Results, then the binder that gave them:

binding (soluble TNFR2 [1]): no binding (tested: 500 nM)
binding (OX40 [2]): no binding (tested: 500 nM)
binding (PD1 [3]): no binding (tested: 500 nM)
binding (soluble TNFR2 [4]): no binding (tested: 500 nM)
binding (OX40 [5]): no binding (tested: 500 nM)
binding (PD1 [6]): no binding (tested: 500 nM)
B3: clone 4 (17.023), yeast-displayed scFv (scFv, V domains shown)
VH: B1 VH with S99Q, W104Y
VL: B1 VL

binding (soluble TNFR2 [1]): no binding (tested: 500 nM)
binding (OX40 [2]): no binding (tested: 500 nM)
binding (PD1 [3]): no binding (tested: 500 nM)
binding (soluble TNFR2 [4]): no binding (tested: 500 nM)
binding (OX40 [5]): no binding (tested: 500 nM)
binding (PD1 [6]): no binding (tested: 500 nM)
B4: clone 6 (17.035), yeast-displayed scFv (scFv, V domains shown)
VH: B1 VH with W104Y, I105N
VL: B1 VL with Y98W, T100S
